Assay results: patent US20260144805A1, “CANNABIDIOL COMPOSITIONS FOR USE IN THE TREATMENT OF NEURODEGENERATIVE AND NEUROLOGICAL DISORDERS” (JAZZ PHARMACEUTICALS RESEARCH UK LIMITED, priority 2022, published 2026)
For at least one compound, name, drawing or mass did not settle the structure.

Columns and labels:
[1] = tested on: tau mRNA; conditions: doxycycline for 6-8 weeks; cited from earlier work
[2] = tested on: rTg4510 mice; experiment: Open Field (OF) test, locomotor activity in rTg4510 mouse model of Alzheimer's Disease (Example 2; DS = DS-C); assay type: in vivo; conditions: Week 31; 0-240 minutes; doxycycline
Protocol: The aim of this study was to evaluate the efficacy of the present drug substance to modulate the agitation-like behaviours in the rTg4510 regulatable mouse model of Alzheimer's Disease (AD). Animals were tested in a behavioural assay, the Open Field (OF) test to measure locomotor activity (LMA). Activity was first assessed at a 21-week-old baseline to determine whether a hyperactive phenotype (to be used as a proxy for agitation) had developed and was further assessed at 2 subsequent ages in acute and chronic efficacy phases. […]
Following this regime, animals were evaluated in Open Field (OF) test, before being deeply anaesthetised at the end of the behavioural testing prior to biofluid sampling and tissue harvesting. […]
Locomotor activity was assessed by OF test in the light phase of the light-dark cycle at weeks 21, 26 and 31. […] All animals were placed in the apparatus and spontaneous activity was assessed for a four-hour period between 0900 and 1300. […]
For locomotor data, a log (x+1) transformation was used. For weeks 21 & 26, means and SEMs were calculated from the transformed data. […] For week 30, data excluding the WW and Doxycycline groups for each time period were analysed by robust regression model using M estimation, Huber weighting, using the default parameter c=1.345. […]

SMILES: C[C@H]1c2cccc(O)c2C(=O)C2=C(O)[C@]3(O)C(=O)C(C(N)=O)=C(O)[C@@H](N(C)C)[C@@H]3[C@@H](O)[C@@H]21 [Doxycycline, doxycycline hyclate]
- tau mRNA as % of the maximum tauP301L level [1]: ~15%
- locomotor activity compared to vehicle-treated rTg4510 animals [2]: decreased locomotor activity
